Reference: paper doi:10.1101/2025.05.19.654996
These are yes or no findings as the source states them, for the method shown. In cells and extracts the contact can be indirect. Some binding calls cover weakened binding; strength is not graded here.

Chains of the proteins cited; added tags and fusions are not shown.
UniProt Q9Z351: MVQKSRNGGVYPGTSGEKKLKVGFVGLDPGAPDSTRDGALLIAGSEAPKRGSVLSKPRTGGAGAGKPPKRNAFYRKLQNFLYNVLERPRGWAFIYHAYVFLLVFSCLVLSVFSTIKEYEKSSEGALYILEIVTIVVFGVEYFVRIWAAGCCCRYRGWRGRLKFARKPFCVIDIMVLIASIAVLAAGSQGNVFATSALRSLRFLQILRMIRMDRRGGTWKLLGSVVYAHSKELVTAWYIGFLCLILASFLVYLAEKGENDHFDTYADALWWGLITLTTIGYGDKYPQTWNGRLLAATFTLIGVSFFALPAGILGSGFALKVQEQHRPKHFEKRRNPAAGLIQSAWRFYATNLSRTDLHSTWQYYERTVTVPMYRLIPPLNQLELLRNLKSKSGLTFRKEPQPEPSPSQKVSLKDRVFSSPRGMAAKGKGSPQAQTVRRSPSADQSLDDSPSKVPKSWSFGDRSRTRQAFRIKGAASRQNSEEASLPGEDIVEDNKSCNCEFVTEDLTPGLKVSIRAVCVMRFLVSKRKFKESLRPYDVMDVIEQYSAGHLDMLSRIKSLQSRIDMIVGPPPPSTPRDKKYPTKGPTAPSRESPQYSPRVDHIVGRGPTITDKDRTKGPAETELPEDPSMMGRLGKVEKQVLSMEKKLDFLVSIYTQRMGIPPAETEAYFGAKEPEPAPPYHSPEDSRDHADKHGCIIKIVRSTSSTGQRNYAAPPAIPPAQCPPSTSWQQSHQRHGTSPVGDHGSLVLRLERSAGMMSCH

Target: T1, neuronal pentraxin1 (NPTX1) (mouse (endogenous in DG tissue)) (UniProt Q62443)
T1 sequence: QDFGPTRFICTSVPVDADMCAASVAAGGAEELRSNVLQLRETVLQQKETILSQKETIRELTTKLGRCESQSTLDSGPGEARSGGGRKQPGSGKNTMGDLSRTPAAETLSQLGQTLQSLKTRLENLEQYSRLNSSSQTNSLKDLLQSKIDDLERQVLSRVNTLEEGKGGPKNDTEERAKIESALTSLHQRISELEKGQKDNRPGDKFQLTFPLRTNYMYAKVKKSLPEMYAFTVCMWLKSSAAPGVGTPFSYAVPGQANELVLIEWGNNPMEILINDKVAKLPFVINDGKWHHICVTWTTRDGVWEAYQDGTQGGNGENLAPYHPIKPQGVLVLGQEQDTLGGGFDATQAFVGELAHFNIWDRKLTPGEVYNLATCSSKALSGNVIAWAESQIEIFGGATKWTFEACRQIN
Test: co-IP

- binding: binds
Substance: KCNQ2 (Kv7.2) (from UniProt Q9Z351 1-759)
